The name of at least one read-out is uncertain.
Tested on: IFN-β secretion in THP1 cells
Test: IFN-β secretion in THP1 cell culture (5 h)
Type: cell-based, human
Details: 30 μM compound, cGAMP at 30 μM set at 100%
Protocol: The ability of compounds to stimulate the secretion of interferon-beta from THP1 cells was measured using a human IFN-β AlphaLISA kit (Perkin Elmer, Cat. No. AL265F). The basic protocol is as follows:
A Labcyte Echo 550 acoustic dispenser was used to transfer 120 nL of compound dissolved in DMSO into the wells of an empty, sterile 384-well microplate, (Corning, Cat. No. 3712). THP1 cells (American Type Culture Collection, Cat. No. TIB202) previously frozen in Recovery Medium (Life Technologies, Cat. No. 12648-010) were thawed and immediately diluted 10-fold into 37° C. assay medium (RPMI 1640+L-Glutamine & phenol red, Life Technologies, Cat. No. 11875-085; 0.5% heat inactivated fetal bovine serum, Sigma Aldrich, Cat. No. F4135; 1 mM Sodium Pyruvate, Life Technologies, Cat. No. 11360-070; lx non-essential amino acids; Life Technologies, Cat. No. 11140-050). The cell viability and count was ascertained using a Beckman Coulter V-Cell XR cell counter. The cells suspension was centrifuged at 200×g for 5 min at RT. Cells were resuspended to a density of 0.8×10^6/mL in 37° C. assay medium. Subsequent liquid transfers were performed using either a Matrix electronic multichannel pipette or an Agilent Bravo Automated Liquid Handling Platform.
The assay was started by dispensing 404, of the previously prepared cell suspension into the wells of the plate containing compounds. After 5 h incubation at 37° C., 5% CO2 in a humidified atmosphere, the plate of cells and compounds was centrifuged at 200×g for 5 min at RT. From each well, 54, of supernatant was transferred into corresponding wells of a white 384-well plate (Perkin Elmer, Cat. No. 6005620). To these supernatant-containing wells was added 10 μL of 5× Anti-Analyte Acceptor beads (50 μg/mL of AlphaLISA HiBlock Buffer) and incubated for 30 min at RT while shaking on an orbital plate shaker. To each well was added 104, of 5× Biotinylated Antibody Anti-analyte (5 nM in AlphaLISA HiBlock Buffer) and incubated on an orbital plate shaker for 60 min at RT or overnight at 4° C. To each well was added 254, of 2× SA-Donor beads (80 μg/mL in AlphaLISA HiBlock Buffer) and incubated for 30-45 min at RT in the dark while shaking on an orbital plate shaker. The plate was then read on a Perkin Elmer Envision (λex=680 nm, λem=[…]). The percent effect of the AlphaLISA signal at each compound concentration was calculated based on 30 uM cGAMP positive controls and 0.3% DMSO negative controls. The plot of percent effect versus the log of compound concentration was fit with a 4-parameter concentration response equation to calculate EC50 values. The test compounds were tested at concentrations 30000, 10000, 3333, 1111, 370.4, 123.4, 41.2, 13.7, 4.6, and 1.5 nM with 0.3% residual DMSO. […]

Structure (SMILES) | % Effect at 30 μM relative to 2′3′-cGAMP [%]
CCC(CC(=O)c1cc2nc(OC)c(OC)cc2s1)C(=O)O (single isomer, unassigned) [Example 11, (R or S)-4-(5,6-Dimethoxythieno[3,2-b]pyridin-2-yl)-2-ethyl-4-oxobutanoic acid] | 58
CCC(CC(=O)c1cc2nc(OC)c(OC)cc2s1)C(=O)O (single isomer, unassigned) [Example 12, (R or S)-4-(5,6-Dimethoxythieno[3,2-b]pyridin-2-yl)-2-ethyl-4-oxobutanoic acid] | 85
CCCC(CC(=O)c1cc2nc(OC)c(OC)cc2s1)C(=O)O (single isomer, unassigned) [Example 13, (R or S)-2-(2-(5,6-Dimethoxythieno[3,2-b]pyridin-2-yl)-2-oxoethyl) pentanoic acid] | 55
CCCC(CC(=O)c1cc2nc(OC)c(OC)cc2s1)C(=O)O (single isomer, unassigned) [Example 14, (R or S)-2-(2-(5,6-Dimethoxythieno[3,2-b]pyridin-2-yl)-2-oxoethyl) pentanoic acid] | 89

— patent publication US11702430B2, “Aza-benzothiophene compounds as STING agonists” (Merck Sharp & Dohme LLC, priority 2018, dated 2023)
